Results taken from PubChem BioAssay AID340 (DTP/NCI, 2004).
The list does not hold the whole screen: its compounds were picked by chemical class. Other doses and runs of a compound may be missing. T/C gives the treated animals as a percentage of the vehicle group. Where survival is the endpoint, this PubChem deposit counts one and a half times the control or more as active, and values a quarter to a half above the control carry no call in these data; other NCI protocols may use other cut-offs. Some entries show no survivor count and are marked so; the dose need not have been tolerated. Schedules are NCI's codes, read here as Q, the interval in days (D) or hours (H), X, the number of doses. Signs of the kind (2×) say how often a value occurs here. Some entries hold several experiments; the results are listed from low to high.

Test system: CD2F1 mice, ip reticulum cell sarcoma, survival T/C
Test: NCI In Vivo Anticancer Drug Screen. Data for tumor model Reticulum Cell Sarcoma (Kelley Mouse) (intraperitoneal) in CD2F1 (CDF1) mice
Conditions: T/C endpoint: median survival time, schedule: Q01DX010 (ip), vehicle: saline, higher T/C = longer survival
Protocol: The antitumor activity of compounds was measured in mice bearing transplantable tumors. Survival or tumor size were measured and the results are expressed as the measurement made in the treated group (T) divided by the measurement made in the vehicle treated control group (C). The tumor model used in this assay is Reticulum Cell Sarcoma (Kelley Mouse) (intraperitoneal) in CD2F1 (CDF1) mice

Compound: NC(Cc1cccc(N(CCCl)CCCl)c1)C(=O)O (stereo unspecified)
- T/C (dose: 1.25 mg/kg/injection): 118 % of control [survivor count not shown]
- T/C (dose: 2.5 mg/kg/injection): 103 % of control [survivor count not shown]

Compound: NC1CCCCC1.NP(=O)(O)N(CCCl)CCCl
- T/C (dose: 15.6 mg/kg/injection): 257 % of control [survivor count not shown]
- T/C (dose: 31.3 mg/kg/injection): 292 % of control [survivor count not shown]
- T/C (dose: 62.5 mg/kg/injection): 135 % of control [survivor count not shown]

Compound: ClCCNCCCl
- T/C (dose: 18.8 mg/kg/injection): 100 [survivor count not shown] and 109 % of control [survivor count not shown]
- T/C (dose: 37.5 mg/kg/injection): 96 % of control [survivor count not shown] (2×)
- T/C (dose: 75.0 mg/kg/injection): 93 [survivor count not shown] and 109 % of control [survivor count not shown]
- T/C (dose: 150.0 mg/kg/injection): 93 % of control [survivor count not shown]

Compound: CC(C(=O)O)N(CCCl)CCCl (stereo unspecified)
- T/C (dose: 0.5 mg/kg/injection): 106 % of control [survivor count not shown]
- T/C (dose: 1.0 mg/kg/injection): 100 [survivor count not shown] and 116 % of control [survivor count not shown]
- T/C (dose: 2.0 mg/kg/injection): 106 [survivor count not shown] and 119 % of control [survivor count not shown]
- T/C (dose: 4.0 mg/kg/injection): 103 [survivor count not shown] and 106 % of control [survivor count not shown]

Compound: ClCCN(CCCl)Cc1nc2ccccc2[nH]1
- T/C (dose: 1.25 mg/kg/injection): 103 [survivor count not shown] and 112 % of control [survivor count not shown]
- T/C (dose: 2.5 mg/kg/injection): 106 [survivor count not shown] and 112 % of control [survivor count not shown]
- T/C (dose: 5.0 mg/kg/injection): 115 [survivor count not shown] and 142 % of control [survivor count not shown]
- T/C (dose: 10.0 mg/kg/injection): 100 % of control [survivor count not shown]

Compound: O=C(O)CN(CCCl)CCCl
- T/C (dose: 0.63 mg/kg/injection): 103 % of control [survivor count not shown]
- T/C (dose: 1.25 mg/kg/injection): 106 [survivor count not shown] and 109 % of control [survivor count not shown]
- T/C (dose: 2.5 mg/kg/injection): 103 [survivor count not shown] and 116 % of control [survivor count not shown]
- T/C (dose: 5.0 mg/kg/injection): 106 % of control [survivor count not shown]
